Results published in the supplement of paper PMC6411743.
± gives the standard deviation of the averaged measurements. This is a selection; strong and weak results do not stand in their true shares. Small differences around the control level are noise.

By UniProt entry, the sequences of proteins in these tests, tags left out. Where a name states a change or a piece, a line headed by the entry shows the natural chain unless it says otherwise.
UniProt P06576, whole entry: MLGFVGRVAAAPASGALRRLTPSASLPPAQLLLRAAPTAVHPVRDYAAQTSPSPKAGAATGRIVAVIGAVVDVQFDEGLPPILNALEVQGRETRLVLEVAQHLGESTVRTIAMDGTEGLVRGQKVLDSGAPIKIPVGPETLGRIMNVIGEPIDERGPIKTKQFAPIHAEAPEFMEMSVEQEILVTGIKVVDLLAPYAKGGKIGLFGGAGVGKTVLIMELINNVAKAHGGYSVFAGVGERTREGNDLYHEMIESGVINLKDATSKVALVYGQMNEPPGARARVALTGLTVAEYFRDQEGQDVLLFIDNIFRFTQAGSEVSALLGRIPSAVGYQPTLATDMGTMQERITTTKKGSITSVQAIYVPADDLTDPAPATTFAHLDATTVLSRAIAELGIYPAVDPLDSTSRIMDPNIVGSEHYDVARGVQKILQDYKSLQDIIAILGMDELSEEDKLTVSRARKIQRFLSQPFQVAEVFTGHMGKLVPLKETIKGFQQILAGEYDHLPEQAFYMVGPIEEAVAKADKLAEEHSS
UniProt P09012, whole entry: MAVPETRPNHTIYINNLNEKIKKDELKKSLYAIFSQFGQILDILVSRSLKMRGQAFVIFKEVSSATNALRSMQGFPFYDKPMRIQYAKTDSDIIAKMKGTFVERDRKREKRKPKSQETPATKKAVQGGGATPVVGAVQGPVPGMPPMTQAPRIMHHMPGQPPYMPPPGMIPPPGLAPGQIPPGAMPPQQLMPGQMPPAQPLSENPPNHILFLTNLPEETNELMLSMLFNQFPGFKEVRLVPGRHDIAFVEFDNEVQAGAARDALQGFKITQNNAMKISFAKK
UniProt P05198, whole entry: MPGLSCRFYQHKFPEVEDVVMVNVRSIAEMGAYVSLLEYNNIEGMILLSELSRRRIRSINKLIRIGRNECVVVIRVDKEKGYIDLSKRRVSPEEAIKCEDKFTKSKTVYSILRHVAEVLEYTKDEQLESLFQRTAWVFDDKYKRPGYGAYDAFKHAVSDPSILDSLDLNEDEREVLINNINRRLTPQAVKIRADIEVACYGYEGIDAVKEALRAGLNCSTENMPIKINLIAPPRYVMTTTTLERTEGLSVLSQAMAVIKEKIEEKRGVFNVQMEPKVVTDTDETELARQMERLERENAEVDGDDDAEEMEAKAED
UniProt P05423: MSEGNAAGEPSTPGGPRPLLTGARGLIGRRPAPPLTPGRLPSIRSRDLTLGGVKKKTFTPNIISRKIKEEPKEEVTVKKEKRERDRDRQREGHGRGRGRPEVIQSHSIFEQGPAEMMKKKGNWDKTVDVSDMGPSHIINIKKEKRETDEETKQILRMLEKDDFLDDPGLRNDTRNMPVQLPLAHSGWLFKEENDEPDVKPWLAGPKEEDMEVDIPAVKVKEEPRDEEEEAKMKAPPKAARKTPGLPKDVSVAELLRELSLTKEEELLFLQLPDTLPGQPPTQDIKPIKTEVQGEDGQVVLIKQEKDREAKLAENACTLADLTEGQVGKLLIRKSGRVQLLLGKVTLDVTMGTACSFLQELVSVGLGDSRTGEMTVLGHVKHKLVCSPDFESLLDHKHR
UniProt P06493, whole entry, looked up: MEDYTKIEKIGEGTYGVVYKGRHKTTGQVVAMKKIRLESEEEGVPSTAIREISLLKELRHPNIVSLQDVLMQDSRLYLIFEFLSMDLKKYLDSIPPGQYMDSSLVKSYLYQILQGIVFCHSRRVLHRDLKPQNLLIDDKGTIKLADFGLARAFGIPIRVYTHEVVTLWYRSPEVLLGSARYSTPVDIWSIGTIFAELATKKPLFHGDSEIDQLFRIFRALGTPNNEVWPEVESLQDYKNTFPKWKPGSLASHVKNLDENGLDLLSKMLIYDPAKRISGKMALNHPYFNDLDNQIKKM
UniProt P10746: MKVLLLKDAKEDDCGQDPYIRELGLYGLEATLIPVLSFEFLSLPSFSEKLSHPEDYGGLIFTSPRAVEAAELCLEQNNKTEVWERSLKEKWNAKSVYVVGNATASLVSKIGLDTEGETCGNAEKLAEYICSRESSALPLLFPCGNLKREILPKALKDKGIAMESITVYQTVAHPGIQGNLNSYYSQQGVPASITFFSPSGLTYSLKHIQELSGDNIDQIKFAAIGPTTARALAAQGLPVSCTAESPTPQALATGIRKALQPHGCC
UniProt P11177, whole entry: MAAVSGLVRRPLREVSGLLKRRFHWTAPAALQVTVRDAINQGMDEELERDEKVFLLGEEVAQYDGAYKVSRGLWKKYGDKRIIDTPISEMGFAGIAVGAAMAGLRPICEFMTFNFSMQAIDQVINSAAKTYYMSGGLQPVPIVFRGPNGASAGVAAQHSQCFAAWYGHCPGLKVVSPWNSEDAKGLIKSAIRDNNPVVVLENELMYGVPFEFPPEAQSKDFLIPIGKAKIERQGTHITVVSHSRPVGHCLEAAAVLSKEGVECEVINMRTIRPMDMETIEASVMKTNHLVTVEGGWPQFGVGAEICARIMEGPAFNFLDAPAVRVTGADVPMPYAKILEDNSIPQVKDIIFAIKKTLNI
UniProt P08579, whole entry: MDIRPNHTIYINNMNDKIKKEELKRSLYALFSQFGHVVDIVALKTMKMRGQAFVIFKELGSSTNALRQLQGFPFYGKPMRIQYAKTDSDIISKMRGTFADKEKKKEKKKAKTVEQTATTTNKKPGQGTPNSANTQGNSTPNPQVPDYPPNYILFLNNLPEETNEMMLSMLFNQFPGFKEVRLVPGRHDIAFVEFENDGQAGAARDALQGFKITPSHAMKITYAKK
UniProt Q01081: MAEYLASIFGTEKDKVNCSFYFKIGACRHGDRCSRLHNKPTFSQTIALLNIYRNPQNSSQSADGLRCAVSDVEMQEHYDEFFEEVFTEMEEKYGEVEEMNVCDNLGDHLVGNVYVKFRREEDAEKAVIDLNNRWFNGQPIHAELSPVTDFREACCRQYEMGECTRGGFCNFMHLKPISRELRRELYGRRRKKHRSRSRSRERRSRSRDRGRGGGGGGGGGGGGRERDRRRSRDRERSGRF
UniProt P07339: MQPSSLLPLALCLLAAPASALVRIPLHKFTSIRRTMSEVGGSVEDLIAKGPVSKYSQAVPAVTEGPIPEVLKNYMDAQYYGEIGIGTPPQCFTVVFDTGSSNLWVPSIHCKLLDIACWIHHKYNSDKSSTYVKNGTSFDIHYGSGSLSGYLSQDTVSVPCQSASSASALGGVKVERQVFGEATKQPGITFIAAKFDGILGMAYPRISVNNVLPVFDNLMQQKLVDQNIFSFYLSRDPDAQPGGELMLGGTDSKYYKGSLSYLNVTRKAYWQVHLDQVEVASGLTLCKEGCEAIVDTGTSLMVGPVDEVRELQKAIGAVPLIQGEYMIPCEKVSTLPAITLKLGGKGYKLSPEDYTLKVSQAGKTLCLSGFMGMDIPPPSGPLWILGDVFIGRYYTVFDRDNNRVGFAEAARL
UniProt P11388: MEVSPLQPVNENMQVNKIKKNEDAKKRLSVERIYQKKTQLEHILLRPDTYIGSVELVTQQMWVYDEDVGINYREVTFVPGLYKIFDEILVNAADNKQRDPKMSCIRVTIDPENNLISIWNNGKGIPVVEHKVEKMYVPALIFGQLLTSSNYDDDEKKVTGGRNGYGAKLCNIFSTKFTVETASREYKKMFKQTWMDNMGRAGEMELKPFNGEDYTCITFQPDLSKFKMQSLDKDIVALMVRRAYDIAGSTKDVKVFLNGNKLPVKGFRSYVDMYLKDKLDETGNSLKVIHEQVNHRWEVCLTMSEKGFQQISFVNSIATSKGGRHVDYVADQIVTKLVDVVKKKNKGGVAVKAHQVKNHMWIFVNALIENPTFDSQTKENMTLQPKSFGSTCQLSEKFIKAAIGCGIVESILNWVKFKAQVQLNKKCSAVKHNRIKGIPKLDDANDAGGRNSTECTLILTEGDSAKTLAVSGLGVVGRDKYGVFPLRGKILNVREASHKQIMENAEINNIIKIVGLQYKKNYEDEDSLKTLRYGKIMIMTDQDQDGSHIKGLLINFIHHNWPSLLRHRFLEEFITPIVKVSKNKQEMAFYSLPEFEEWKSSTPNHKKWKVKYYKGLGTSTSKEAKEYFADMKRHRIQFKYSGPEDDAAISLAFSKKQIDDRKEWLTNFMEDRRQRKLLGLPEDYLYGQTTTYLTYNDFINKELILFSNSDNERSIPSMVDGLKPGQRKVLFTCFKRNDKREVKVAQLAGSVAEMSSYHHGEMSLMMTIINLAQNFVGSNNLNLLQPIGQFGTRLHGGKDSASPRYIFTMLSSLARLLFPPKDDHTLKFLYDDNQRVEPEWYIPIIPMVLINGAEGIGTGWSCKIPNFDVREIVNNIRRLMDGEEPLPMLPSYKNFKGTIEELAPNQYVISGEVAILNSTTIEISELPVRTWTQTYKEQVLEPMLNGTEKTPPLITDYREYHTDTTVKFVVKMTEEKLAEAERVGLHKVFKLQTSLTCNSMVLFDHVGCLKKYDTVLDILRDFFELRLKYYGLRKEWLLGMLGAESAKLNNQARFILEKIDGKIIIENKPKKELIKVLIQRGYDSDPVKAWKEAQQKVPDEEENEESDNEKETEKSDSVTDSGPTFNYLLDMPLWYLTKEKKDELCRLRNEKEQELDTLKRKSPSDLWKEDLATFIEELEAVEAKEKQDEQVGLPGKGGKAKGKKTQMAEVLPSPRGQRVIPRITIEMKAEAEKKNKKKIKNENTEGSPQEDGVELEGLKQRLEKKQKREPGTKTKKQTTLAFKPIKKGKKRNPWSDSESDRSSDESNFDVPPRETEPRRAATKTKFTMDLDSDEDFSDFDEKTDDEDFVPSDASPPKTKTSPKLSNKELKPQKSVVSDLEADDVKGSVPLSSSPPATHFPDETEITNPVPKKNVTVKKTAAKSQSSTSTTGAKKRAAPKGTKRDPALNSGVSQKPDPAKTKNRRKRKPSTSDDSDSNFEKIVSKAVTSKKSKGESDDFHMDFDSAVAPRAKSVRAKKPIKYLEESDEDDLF
UniProt P13674: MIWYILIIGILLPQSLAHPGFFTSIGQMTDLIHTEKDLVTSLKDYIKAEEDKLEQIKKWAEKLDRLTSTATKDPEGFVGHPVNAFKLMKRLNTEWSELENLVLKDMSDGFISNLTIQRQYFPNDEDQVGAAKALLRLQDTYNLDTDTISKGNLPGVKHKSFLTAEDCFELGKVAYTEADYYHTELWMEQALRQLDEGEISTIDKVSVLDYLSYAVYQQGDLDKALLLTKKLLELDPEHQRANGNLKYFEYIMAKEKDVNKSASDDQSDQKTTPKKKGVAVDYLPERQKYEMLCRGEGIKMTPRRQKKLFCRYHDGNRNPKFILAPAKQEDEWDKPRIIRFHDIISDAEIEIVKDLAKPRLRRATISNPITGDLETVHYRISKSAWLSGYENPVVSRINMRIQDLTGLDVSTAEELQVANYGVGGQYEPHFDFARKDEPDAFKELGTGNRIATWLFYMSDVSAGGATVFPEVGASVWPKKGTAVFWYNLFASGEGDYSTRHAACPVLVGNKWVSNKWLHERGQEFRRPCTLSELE
UniProt P05114: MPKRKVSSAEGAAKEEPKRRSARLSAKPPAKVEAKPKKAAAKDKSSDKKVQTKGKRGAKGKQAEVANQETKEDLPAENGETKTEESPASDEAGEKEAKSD
UniProt P10606, whole entry: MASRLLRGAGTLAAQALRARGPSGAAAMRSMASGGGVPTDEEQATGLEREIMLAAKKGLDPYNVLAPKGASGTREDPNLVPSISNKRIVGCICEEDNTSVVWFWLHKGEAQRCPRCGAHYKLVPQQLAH
UniProt P08238, whole entry: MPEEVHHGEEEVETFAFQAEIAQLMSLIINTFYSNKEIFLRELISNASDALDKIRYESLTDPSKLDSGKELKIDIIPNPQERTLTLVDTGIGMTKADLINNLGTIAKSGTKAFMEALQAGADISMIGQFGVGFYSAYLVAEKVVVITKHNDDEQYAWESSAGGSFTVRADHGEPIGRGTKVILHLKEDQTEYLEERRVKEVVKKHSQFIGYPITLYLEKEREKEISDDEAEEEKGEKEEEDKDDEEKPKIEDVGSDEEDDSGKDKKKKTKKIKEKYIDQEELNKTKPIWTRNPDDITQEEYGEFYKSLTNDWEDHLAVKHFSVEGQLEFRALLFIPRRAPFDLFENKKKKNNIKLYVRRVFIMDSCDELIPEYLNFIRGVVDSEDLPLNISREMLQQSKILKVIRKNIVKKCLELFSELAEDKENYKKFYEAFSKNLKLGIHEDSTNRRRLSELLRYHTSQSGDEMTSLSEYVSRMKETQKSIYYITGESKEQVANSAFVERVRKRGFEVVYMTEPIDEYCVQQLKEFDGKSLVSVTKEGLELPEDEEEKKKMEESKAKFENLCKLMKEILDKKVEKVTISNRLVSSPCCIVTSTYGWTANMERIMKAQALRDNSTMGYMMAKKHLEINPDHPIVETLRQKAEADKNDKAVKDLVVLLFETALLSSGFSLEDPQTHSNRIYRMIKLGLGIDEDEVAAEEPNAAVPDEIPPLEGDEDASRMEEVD

Compound: Nc1ncnc2c1ncn2[C@@H]1O[C@H](COP(=O)(O)OP(=O)(O)OP(=O)(O)O)[C@@H](O)[C@H]1O [adenosine triphosphate]
Experiment: NP40-soluble protein abundance relative to vehicle (solubility fold change) (ratio); higher = more soluble protein in presence of ATP
Settings: concentration: 0.1mM
Method in brief: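 Jurkat crude lysate (Dounce-homogenised) was treated with eight concentrations from 0.1 to 10 mM for 10 min at room temperature, then 3 min at 37 °C. It was solubilised with 0.8% NP40 and benzonase (60 min, 4 °C) and ultracentrifuged, and the supernatant was TMT-labelled for LC-MS/MS. Intensities were vsn-normalised, and the value is the fold change against the NP40-processed vehicle per replicate, from three independent experiments.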

Row | Target | NP40-soluble protein abundance
1 | CST3 (UniProt P01034) | 1.02 ± 0.12
2 | UniProt O96028 and related entries | 1.02 ± 0.054
3 | PFN1 (UniProt P07737) | 0.985 ± 0.041
4 | UniProt P06576 and related entries | 0.87 ± 0.23
5 | SNRPA (UniProt P09012) | 1.02 ± 0.04
6 | NRAS (UniProt P01111) | 1.07 ± 0.031
7 | EIF2S1 (UniProt P05198) | 1.05 ± 0.062
8 | UniProt P08243 and related entries | 1.13 ± 0.12
9 | POLR3D (UniProt P05423) | 0.981 ± 0.033
10 | UCHL3 (UniProt P15374) | 1.04 ± 0.06
11 | GAA (UniProt P10253) | 1 ± 0.026
12 | UniProt P06493 | 1.06 ± 0.061
13 | AKR1A1 (UniProt P14550) | 1.02 ± 0.053
14 | UROS (UniProt P10746) | 1.02 ± 0.029
15 | UniProt P09471-2 | 1.03 ± 0.055
16 | HMGN2 (UniProt P05204) | 1.13 ± 0.22
17 | UniProt P12931 and related entries | 1.05 ± 0.095
18 | XRCC5 (UniProt P13010) | 1.04 ± 0.074
19 | UniProt P11177 and related entries | 1.01 ± 0.069

Rewritten with each value named: entries from further up.
POLR3D (UniProt P05423)
  NP40-soluble protein abundance: 0.981 ± 0.033
UCHL3 (UniProt P15374)
  NP40-soluble protein abundance: 1.04 ± 0.06

Going on with the list:

Row | Target | NP40-soluble protein abundance
20 | SNRPB2 (UniProt P08579) | 0.971 ± 0.014
21 | UniProt P12268 and related entries | 0.86 ± 0.18
22 | P0DN76 and related entries (UniProt Q01081+P0DN76) | 1.24 ± 0.065
23 | MTHFD2 (UniProt P13995) | 1.03 ± 0.033
24 | CTSD (UniProt P07339) | 0.978 ± 0.029
25 | UniProt P11388 and related entries | 1.11 ± 0.055
26 | UniProt P13674 and related entries | 0.985 ± 0.012
27 | P0DN79 and related entries (UniProt P35520+P0DN79) | 0.984 ± 0.043
28 | TOP1 (UniProt P11387) | 1.03 ± 0.018
29 | P0CG12 and related entries (UniProt P0CG13) | 0.959 ± 0.047
30 | UniProt P08621 and related entries | 1.02 ± 0.032
31 | SPN (UniProt P16150) | 0.834 ± 0.17
32 | GALT (UniProt P07902) | 1.04 ± 0.042
33 | HMGN1 (UniProt P05114) | 1.03 ± 0.13
34 | UniProt P08134 and related entries | 1.05 ± 0.077
35 | COX5B (UniProt P10606) | 0.939 ± 0.049
36 | UniProt O95983 and related entries | 0.946 ± 0.1
37 | UniProt O95985 and related entries | 1.08 ± 0.038
38 | HSP90AB1 (UniProt P08238) | 1.04 ± 0.065
